Results are given in words; binding and its absence hold for the method and conditions named. Some results given as binding are weak or reduced against the parent protein; the word gives no strength.
Experiments:
[1] = biological target: human glandular kallikrein hK2 (human) (UniProt P20151); experiment: Western blot of complex formation (FIG. 3)
[2] = biological target: human glandular kallikrein hK2 (human) (UniProt P20151); experiment: Western blot, anti-hK2 antibody, 3 h at 37° C., I:E 100:1 (FIG. 3A)

Amino acid sequences for entries named in this document (tags omitted). Residues count along the entry.
UniProt P20151, residues 25-261: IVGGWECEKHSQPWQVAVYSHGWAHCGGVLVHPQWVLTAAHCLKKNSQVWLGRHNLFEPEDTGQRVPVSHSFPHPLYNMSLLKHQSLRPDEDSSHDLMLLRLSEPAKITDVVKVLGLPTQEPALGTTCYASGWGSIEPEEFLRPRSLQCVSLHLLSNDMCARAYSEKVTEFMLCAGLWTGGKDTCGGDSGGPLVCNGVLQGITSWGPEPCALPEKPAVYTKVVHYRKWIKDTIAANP

binding [1]: binds | binding [2]: binds
B1: rACTWT (recombinant wild type α1-antichymotrypsin) (protein, human)
chain: HHHHHHNSPLDEENLTQENQDRGTHVDLGLASANVDFAFSLYKQLVLKAPDKNVIFSPLSISTALAFLSLGAHNTTLTEILKGLKFNLTETSEAEIHQSFQHLLRTLNQSSDELQLSMGNAMFVKEQLSLLDRFTEDAKRLYGSEAFATDFQDSAAAKKLINDYVKNGTRGKITDLIKDLDSQTMMVLVNYIFFKAKWEMPFDPQDTHQSRFYLSKKKWVMVPMMSLHHLTIPYFRDEELSCTVVELKYTGNASALFILPDQDKMEEVEAMLLPETLKRWRDSLEFREIGELYLPKFSISRDYNLNDILLQLGIEEAFTSKADLSGITGARNLAVSQVVHKAVLDVFEEGTEASAATAVKITLLSALVETRTIVRFNRPFLMIIVPTDTQNIFFMSKVTNPKQA

From patent publication US20060269536A1
